Source: article PMC3744483, “Swiprosin-1 Is a Novel Actin Bundling Protein That Regulates Cell Spreading and Migration” (PLoS ONE, 2013)
No constants are given. Whether binding was seen depends on the method and setting. Binding seen in cells or lysates may run through a third protein. Some results given as binding are weak or reduced against the parent protein; the word gives no strength. Where a sequence is shown, tags or fusion partners need not be part of it. One block for each binder: values may come before it.

Tests used:
[1] = target: M2_GFP_Swip-1 (Δ97–163) (human) (UniProt Q96C19); experiment: cross-linking; lysates of transfected HEK293T cells with glutaraldehyde (0.001–0.01%) on ice for 20 min, SDS-PAGE, blot with anti-GFP
[2] = target: T1, wild-type swiprosin-1 fused to GFP (human) (UniProt Q96C19); experiment: co-IP; HEK293T transfected with GFP or GFP_Swip-1 and myc or myc_Swip-1 (4, 7, 11 µg); lysates precipitated with anti-GFP antibody-conjugated beads, blotted with anti-GFP or anti-myc; also after BAPTA-AM (20 µM, with 2 mM EGTA) or ionomycin (2 µM, with 1 mM CaCl2) in the presence of 10 µM cytochalasin D
T1 sequence: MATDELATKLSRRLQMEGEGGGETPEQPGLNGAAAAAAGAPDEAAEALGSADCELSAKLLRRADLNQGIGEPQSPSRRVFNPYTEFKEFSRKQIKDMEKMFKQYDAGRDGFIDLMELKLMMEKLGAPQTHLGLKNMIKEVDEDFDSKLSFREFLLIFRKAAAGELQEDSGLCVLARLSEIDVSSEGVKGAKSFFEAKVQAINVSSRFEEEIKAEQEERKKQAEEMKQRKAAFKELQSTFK

[3] = target: M1_GFP_Swip-1 (1–163) (human) (UniProt Q96C19); experiment: cross-linking; lysates of transfected HEK293T cells with glutaraldehyde (0.001–0.01%) on ice for 20 min, SDS-PAGE, blot with anti-GFP
[4] = target: M3_GFP_Swip-1 (97–240) (human) (UniProt Q96C19); experiment: as above

binding [2]: binds
B2: His-tagged wild-type swiprosin-1 (natural protein, human, UniProt Q96C19 1-240, looked up)
chain: MATDELATKLSRRLQMEGEGGGETPEQPGLNGAAAAAAGAPDEAAEALGSADCELSAKLLRRADLNQGIGEPQSPSRRVFNPYTEFKEFSRKQIKDMEKMFKQYDAGRDGFIDLMELKLMMEKLGAPQTHLGLKNMIKEVDEDFDSKLSFREFLLIFRKAAAGELQEDSGLCVLARLSEIDVSSEGVKGAKSFFEAKVQAINVSSRFEEEIKAEQEERKKQAEEMKQRKAAFKELQSTFK
notes: swiprosin-1, human, full-length clone amplified from pOTB7 (RZPD), cloned into a modified pET-28a; The modified pET-28a carries a TEV protease cleavage site (ENLYFQ/G) with the N-terminal tandem His tags; no cleavage is described and the protein is detected with anti-His; also called Swip-1; source: E. coli BL21 (DE3), purified (Ni-NTA agarose); not shown: His tag (tandem), N-terminal, kept

binding [4]: binds
B4: M3_GFP_Swip-1 (97–240) (domain or fragment, UniProt Q96C19 97-240)
chain: MEKMFKQYDAGRDGFIDLMELKLMMEKLGAPQTHLGLKNMIKEVDEDFDSKLSFREFLLIFRKAAAGELQEDSGLCVLARLSEIDVSSEGVKGAKSFFEAKVQAINVSSRFEEEIKAEQEERKKQAEEMKQRKAAFKELQSTFK

Further lines, the binder ahead of its results:

B1: M2_GFP_Swip-1 (Δ97–163) (protein, UniProt Q96C19)
chain: MATDELATKLSRRLQMEGEGGGETPEQPGLNGAAAAAAGAPDEAAEALGSADCELSAKLLRRADLNQGIGEPQSPSRRVFNPYTEFKEFSRKQIKDELQEDSGLCVLARLSEIDVSSEGVKGAKSFFEAKVQAINVSSRFEEEIKAEQEERKKQAEEMKQRKAAFKELQSTFK
binding [1]: binds

B3: M1_GFP_Swip-1 (1–163) (domain or fragment, UniProt Q96C19 1-163)
chain: MATDELATKLSRRLQMEGEGGGETPEQPGLNGAAAAAAGAPDEAAEALGSADCELSAKLLRRADLNQGIGEPQSPSRRVFNPYTEFKEFSRKQIKDMEKMFKQYDAGRDGFIDLMELKLMMEKLGAPQTHLGLKNMIKEVDEDFDSKLSFREFLLIFRKAAAG
binding [3]: no binding
